Measured values reported in PMC6193743, “Phosphoglucomutase 1 inhibits hepatocellular carcinoma progression by regulating glucose trafficking”.
Results are given in words; binding and its absence hold for the method and conditions named. Binding seen in cells or lysates may run through a third protein. Some binding calls cover weakened binding; strength is not graded here.

Sequences of proteins named here, by UniProt entry; tags and fusion partners are left off.
UniProt Q9P0K8: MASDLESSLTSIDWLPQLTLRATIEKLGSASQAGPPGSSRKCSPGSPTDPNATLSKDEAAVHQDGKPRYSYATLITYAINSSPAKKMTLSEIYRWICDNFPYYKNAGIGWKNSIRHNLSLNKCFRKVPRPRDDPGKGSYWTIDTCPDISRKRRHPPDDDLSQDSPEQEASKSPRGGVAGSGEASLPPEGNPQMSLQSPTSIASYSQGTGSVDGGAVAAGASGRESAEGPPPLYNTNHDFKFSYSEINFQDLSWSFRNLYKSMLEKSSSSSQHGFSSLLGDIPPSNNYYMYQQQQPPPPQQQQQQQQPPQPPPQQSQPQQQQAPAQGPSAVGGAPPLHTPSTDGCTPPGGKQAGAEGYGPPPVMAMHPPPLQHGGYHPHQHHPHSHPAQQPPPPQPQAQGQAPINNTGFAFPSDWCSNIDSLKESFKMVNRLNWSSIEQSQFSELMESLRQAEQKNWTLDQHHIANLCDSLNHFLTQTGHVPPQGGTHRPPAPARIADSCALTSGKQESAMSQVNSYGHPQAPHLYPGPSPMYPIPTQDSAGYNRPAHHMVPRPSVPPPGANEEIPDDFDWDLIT
UniProt P62633: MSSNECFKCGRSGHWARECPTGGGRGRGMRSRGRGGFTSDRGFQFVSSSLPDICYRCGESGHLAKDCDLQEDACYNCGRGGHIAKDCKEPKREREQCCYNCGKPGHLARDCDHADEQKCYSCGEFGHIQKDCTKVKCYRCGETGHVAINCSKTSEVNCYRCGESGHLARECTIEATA

Target: Flag-FOXJ2 (forkhead box protein J2) (human) (UniProt Q9P0K8)
Experiment: co-IP; anti-Flag immunoprecipitation from SK-Hep1 cells expressing EV or Flag-FOXJ2; immunoblotting with indicated antibodies

cellular nucleic acid-binding protein (CNBP) (from UniProt P62633 1-177)
binding: binds
